These are yes or no findings as the source states them, for the method shown. In cells and extracts the contact can be indirect. Some binding calls cover weakened binding; strength is not graded here. Tags and fused reporters may be left off the sequences shown. One block for each binder: values may come before it.
What was measured:
[1] = target: T1, haemagglutinin-fused NSN1 (NSN1:HA) (Arabidopsis thaliana) (UniProt Q9M8Z5); test: co-IP; extracts of N. benthamiana leaves co-expressing the tagged proteins; immunoprecipitation with anti-HA antibody, immunoblotting with anti-Flag or anti-Myc antibodies
T1 sequence: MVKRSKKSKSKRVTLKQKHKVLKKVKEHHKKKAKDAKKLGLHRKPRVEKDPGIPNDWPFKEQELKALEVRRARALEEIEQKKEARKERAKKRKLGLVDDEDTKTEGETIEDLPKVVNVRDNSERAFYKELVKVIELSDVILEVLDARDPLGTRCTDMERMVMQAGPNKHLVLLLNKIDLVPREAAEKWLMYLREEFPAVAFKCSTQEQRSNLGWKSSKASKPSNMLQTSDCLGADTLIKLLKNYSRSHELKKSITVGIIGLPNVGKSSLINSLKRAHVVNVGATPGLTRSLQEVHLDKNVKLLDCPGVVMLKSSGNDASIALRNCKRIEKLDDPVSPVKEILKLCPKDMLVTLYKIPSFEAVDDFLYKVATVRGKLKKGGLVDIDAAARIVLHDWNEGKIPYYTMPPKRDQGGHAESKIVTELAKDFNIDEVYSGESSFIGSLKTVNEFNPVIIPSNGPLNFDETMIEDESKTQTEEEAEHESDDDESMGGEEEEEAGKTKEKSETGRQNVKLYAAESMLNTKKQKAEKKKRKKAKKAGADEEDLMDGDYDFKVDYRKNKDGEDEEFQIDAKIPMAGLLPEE

[2] = target: T2, Arabidopsis Pescadillo (PES), YFP^N or YFP^C fusion for BiFC (Arabidopsis) (UniProt Q9LYK7); test: split reporter; BiFC: proteins co-expressed as YFP^N and YFP^C fusions in N. benthamiana leaves by agroinfiltration; after 48 h protoplasts observed by confocal laser scanning microscopy
T2 sequence: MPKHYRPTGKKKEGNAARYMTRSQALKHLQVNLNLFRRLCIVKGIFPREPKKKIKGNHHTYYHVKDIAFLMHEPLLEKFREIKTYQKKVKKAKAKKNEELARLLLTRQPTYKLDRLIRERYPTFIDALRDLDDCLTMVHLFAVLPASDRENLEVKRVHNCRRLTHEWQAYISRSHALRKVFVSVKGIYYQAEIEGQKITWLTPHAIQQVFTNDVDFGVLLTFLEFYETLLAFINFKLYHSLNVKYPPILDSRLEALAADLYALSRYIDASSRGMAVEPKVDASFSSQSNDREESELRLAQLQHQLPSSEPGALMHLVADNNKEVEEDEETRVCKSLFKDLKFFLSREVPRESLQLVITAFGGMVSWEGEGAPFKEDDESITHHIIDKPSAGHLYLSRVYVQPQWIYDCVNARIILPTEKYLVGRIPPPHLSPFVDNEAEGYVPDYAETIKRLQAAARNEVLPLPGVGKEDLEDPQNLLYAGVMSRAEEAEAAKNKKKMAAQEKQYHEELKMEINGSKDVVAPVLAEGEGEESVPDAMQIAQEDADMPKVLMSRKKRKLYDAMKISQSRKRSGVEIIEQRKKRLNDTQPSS

[3] = target: T3, NSN1 lacking the N-terminal 94 amino acids (∆N), BiFC fusion (Arabidopsis thaliana) (UniProt Q9M8Z5); test: as above
T3 sequence: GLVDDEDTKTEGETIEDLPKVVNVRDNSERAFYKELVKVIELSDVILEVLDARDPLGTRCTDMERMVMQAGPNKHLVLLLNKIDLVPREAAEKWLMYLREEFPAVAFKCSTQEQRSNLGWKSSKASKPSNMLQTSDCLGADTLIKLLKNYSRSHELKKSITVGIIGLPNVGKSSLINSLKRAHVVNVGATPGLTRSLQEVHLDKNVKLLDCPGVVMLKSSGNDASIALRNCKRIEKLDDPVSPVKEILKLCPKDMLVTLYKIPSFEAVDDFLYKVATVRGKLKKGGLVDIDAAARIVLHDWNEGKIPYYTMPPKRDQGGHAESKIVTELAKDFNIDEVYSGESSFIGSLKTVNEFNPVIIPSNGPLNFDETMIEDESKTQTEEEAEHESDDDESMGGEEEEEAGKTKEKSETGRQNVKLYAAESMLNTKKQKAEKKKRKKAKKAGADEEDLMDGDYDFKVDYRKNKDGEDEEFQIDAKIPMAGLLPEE

[4] = target: T4, nucleostemin-like 1 (NSN1), YFP^N or YFP^C fusion for BiFC (Arabidopsis thaliana) (UniProt Q9M8Z5); test: as above
T4 sequence: T1 sequence

[5] = target: T5, N-terminal domain of NSN1 (NSN1-N; amino acids 1-174), BiFC fusion (Arabidopsis thaliana) (UniProt Q9M8Z5); test: as above
T5 sequence: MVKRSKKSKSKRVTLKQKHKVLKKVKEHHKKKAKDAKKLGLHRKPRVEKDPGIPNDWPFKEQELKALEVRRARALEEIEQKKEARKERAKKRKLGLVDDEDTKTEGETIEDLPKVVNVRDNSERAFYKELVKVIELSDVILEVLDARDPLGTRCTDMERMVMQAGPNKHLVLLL

B1: Myc-fused EBP2 (Myc:EBP2) (protein, UniProt Q9LUJ5 1-293)
chain: MSLEEDIVSDDEMNMIDEDDATDSEAESLSDSDTENEITEKLAEPTKTAIYNRDGLLDKLQDISWPEDVDWTHKLTVEIDQGGAVDVNDDLARETAFYTQALEGTREAFGKLNEMGVNFLRPANYYAEMVKSDVHMEKVKSRLLHEKKQIEESEERRKARDNKRMAKEVQSQKMKERAKEKKDNIESVKKWRKQRQQSGFSDKAGEPELDFESGKSFQRGGGKKRPGVSPGDRSGGKGRPTSRMGNKKREFRDSKFGHGGRKGLSKQNTAETTNDFKGGFRGGKASGNKRQKR
binding [1]: binds

binding [2]: binds
binding [3]: binds
binding [4]: binds
binding [5]: binds
B2: EBNA1 binding protein 2 (EBP2), YFP^N or YFP^C fusion for BiFC (protein, UniProt Q9LUJ5 1-293)
chain: B1 chain

binding [3]: binds
binding [4]: binds
binding [5]: binds
B3: Arabidopsis Pescadillo (PES), YFP^N or YFP^C fusion for BiFC (protein, UniProt Q9LYK7 1-590)
chain: T2 sequence

B4: Flag-fused PES (PES:Flag) (protein, UniProt Q9LYK7 1-590)
chain: T2 sequence
binding [1]: binds

— PMC4588883
